Results as given in US20100331368A1, “2,5-DIARYL SELENOPHENE COMPOUNDS, AZA 2,5-DIARYL THIOPHENE COMPOUNDS, AND THEIR PRODRUGS AS ANTIPROTOZOAL AGENTS” (priority 2007, published 2010).
Some entries share one result that the patent states for a list of compounds.

Tests used:
Assay type in all cases: cell-based
[1] = test system: Trypanosoma brucei rhodesiense (T. b. r.); experiment: In vitro antiprotozoal activity against Trypanosoma brucei rhodesiense; conditions: read-out: IC50 values versus T.b.r.
Procedure: (§1) In vitro antiprotozoal activities were measured following established protocols. […] E., et al., Bioorg.

[2] = test system: Leishmania donovani (L. d.); experiment: In vitro assay against Leishmania donovani; conditions: read-out: IC50 values versus L.d.
Procedure: as §1

[3] = test system: Plasmodium falciparum (P. f.); experiment: In vitro antiprotozoal activity against Plasmodium falciparum; conditions: read-out: IC50 values versus P.f.
Procedure: as §1

Cl.Cl.N=C(N)c1ccc(-c2ccc(-c3ccc(C(=N)N)nc3)s2)cn1 [Compound 33, 2,5-Bis-[5-(2-amidino-pyridyl)]thiophene dihydrochloride]
IC50 [1]: ≤ 0.026 µM
IC50 [2]: < 0.2 µM
IC50 [3]: ≤ 0.014 µM
